According to PubChem BioAssay AID493014 (National Center for Advancing Translational Sciences (NCATS), 2011):
The other results are listed elsewhere or left out. Shown are side measurements of this screen, not its main read-out; they come without a call. Compounds called inactive in the main read-out are mostly missing here. Words in brackets tell the shape of the fitted curve; partial curves, single points and poor fits give uncertain potencies.

Test: qHTS Assay to Find Inhibitors of Chronic Active B-Cell Receptor Signaling
Conditions: ABC-DLBCL IkBa-CBG/CBR reporter, luminescence ratio (green luciferase fused to IkBa over red control in TMD8 lymphoma cells), 4 h
How it was run: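 Concentration-response series (up to 46 uM) were applied to TMD8 dual-reporter cells for 4 h at 37C with doxycycline. Green/red ratio, after filter-overlap correction, defined %Activity; red signal alone was normalised to basal cells and zero luminescence.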

[1] = measured here: CBR red luminescence, cell number
[2] = measured here: IkBa-CBG green luminescence

SMILES	AC50 [1]	AC50 [2]
O=S(=O)(c1ccccc1)N(F)S(=O)(=O)c1ccccc1	3.66 µM [rising, full curve]	
CSc1ncc(CN2CCc3c([nH]c4ccccc34)C2c2cccc(O)c2)cn1 (configuration not stated)	20 µM [falling, partial curve, poor fit]	20 µM [rising, partial curve, poor fit]
c1csc(-c2nc3ccccc3[nH]2)c1	2.91 µM [falling, full curve]	
Cn1c(C(=O)c2ccncc2)cc2ccccc21	20 µM [rising, single point]	
CCOc1ccc(S(=O)(=O)Nc2cccc(C(=O)N3CCN(c4cccc(OC)c4)CC3)c2)cc1	7.31 µM [rising, partial curve, poor fit]	
CN1CC(=O)N(CC(=O)Nc2ccc3c(c2)CCC3)C1=O	11.2 µM [falling, partial curve, poor fit]	
COc1ccc(NS(=O)(=O)c2cc(NC(=O)c3ccc(F)cc3)ccc2OC)cc1	20.6 µM [falling, single point]	
CCOC(=O)c1c(NC(=O)C2c3ccccc3Oc3ccccc32)sc(C(N)=O)c1C	6.51 µM [falling, single point]	
O=C(c1cc(-c2cccc(Cl)c2)on1)N1CCN(c2ccccc2)CC1	0.398 µM [falling, full curve, poor fit]	
COc1ccc(Br)cc1/C=N/n1c(COc2ccccc2)n[nH]c1=S	35.5 µM [rising, single point]	
CCCCC(=O)Nc1ccc(NC(=O)c2cnccn2)cn1	3.98 µM [falling, partial curve, poor fit]	
O=C(/C=C/c1ccc(Cl)c([N+](=O)[O-])c1)Nc1cccc(NC(=O)c2ccco2)c1	1.84 µM [falling, full curve]	
CCCCOC(=O)/C=C/c1c(C)[nH]c(=O)[nH]c1=O	29.1 µM [rising, single point]	
CC(=O)c1ccc(N(C(=O)c2csnn2)C(C(=O)NC2CCCC2)c2ccccc2)cc1 (configuration not stated)	0.501 µM [rising, full curve, poor fit]	
Cc1ccccc1C(=O)NC(=S)Nc1ccc(N2CCOCC2)cc1	7.08 µM [falling, partial curve, poor fit]	
CN(C)CCCCNCCCNC(=O)/C=N\O	0.0259 µM [falling, full curve, poor fit]	
C=C1CCC2C(C)(C)[C@@H](O)CC[C@@]2(C)[C@@H]1COc1ccc2ccc(=O)oc2c1 (some centres not stated)	3.55 µM [falling, partial curve]	
COc1ccc(CN(C)C(=O)c2ccc(NS(=O)(=O)c3ccc4[nH]c(=O)[nH]c4c3)cc2)c(OC)c1OC	29.1 µM [rising, single point]	
COC(=O)c1ccc(/C=N/NC(=O)C(=O)N2CCCCCC2)cc1	10 µM [falling, partial curve, poor fit]	
O=c1c2c3nc4ccccc4nc3n(/N=C/c3ccco3)c2ncn1CCC1=CCCCC1	7.94 µM [falling, partial curve, poor fit]	

Given as comma-separated lines: entries from further up
SMILES,AC50 [1],AC50 [2]
CSc1ncc(CN2CCc3c([nH]c4ccccc34)C2c2cccc(O)c2)cn1 (configuration not stated),"20 µM [falling, partial curve, poor fit]","20 µM [rising, partial curve, poor fit]"
c1csc(-c2nc3ccccc3[nH]2)c1,"2.91 µM [falling, full curve]",
CCOc1ccc(S(=O)(=O)Nc2cccc(C(=O)N3CCN(c4cccc(OC)c4)CC3)c2)cc1,"7.31 µM [rising, partial curve, poor fit]",
COc1ccc(NS(=O)(=O)c2cc(NC(=O)c3ccc(F)cc3)ccc2OC)cc1,"20.6 µM [falling, single point]",
CCOC(=O)c1c(NC(=O)C2c3ccccc3Oc3ccccc32)sc(C(N)=O)c1C,"6.51 µM [falling, single point]",
CCCCC(=O)Nc1ccc(NC(=O)c2cnccn2)cn1,"3.98 µM [falling, partial curve, poor fit]",
O=C(/C=C/c1ccc(Cl)c([N+](=O)[O-])c1)Nc1cccc(NC(=O)c2ccco2)c1,"1.84 µM [falling, full curve]",
Cc1ccccc1C(=O)NC(=S)Nc1ccc(N2CCOCC2)cc1,"7.08 µM [falling, partial curve, poor fit]",
CN(C)CCCCNCCCNC(=O)/C=N\O,"0.0259 µM [falling, full curve, poor fit]",
COC(=O)c1ccc(/C=N/NC(=O)C(=O)N2CCCCCC2)cc1,"10 µM [falling, partial curve, poor fit]",
O=c1c2c3nc4ccccc4nc3n(/N=C/c3ccco3)c2ncn1CCC1=CCCCC1,"7.94 µM [falling, partial curve, poor fit]",

Next part

SMILES	AC50 [1]	AC50 [2]
C=CCN(c1ccccc1)S(=O)(=O)c1ccc2c(c1)NC(=O)C(C)S2 (configuration not stated)	35.5 µM [falling, single point]	14.1 µM [rising, partial curve, poor fit]
COc1ccc(C2CC(C(F)(F)F)n3ncc(C(=O)NCc4cccnc4)c3N2)cc1OC (configuration not stated)	6.51 µM [falling, single point]	
CCC(=O)C1=C(c2ccc(Cl)cc2)N(C(=O)CC)n2c(C)nnc2S1	7.08 µM [falling, full curve]	
COc1ccc(/C=C/C(=O)OCC(=O)N2CC(=O)Nc3ccccc32)cc1	25.9 µM [rising, single point]	
Cc1ccc(NC(=S)NC(=O)C2CCCC2)cc1C	35.5 µM [rising, single point]	
CCC(=O)N1CCc2cc(S(=O)(=O)NC(Cc3ccccc3)C(=O)Nc3nccs3)ccc21 (configuration not stated)	25.9 µM [rising, single point]	
COCCN1CCn2c(nc3cc(NC(C)=O)ccc32)C1	35.5 µM [rising, single point]	
Fc1ccc2c(c1)C(c1ccc(N3CCOCC3)cc1)=NNC(c1cccs1)=N2		13 µM [falling, partial curve, poor fit]
Cc1cc(C(F)(F)F)n2ncc(-c3ccccc3)c2n1	10.3 µM [rising, partial curve, poor fit]	
Cc1cc(SCC(=O)c2cc(C)n(C)c2C)nc2ccccc12	9.2 µM [falling, partial curve, poor fit]	
NC(=O)NC(CC(=O)NNC(=O)c1ccccn1)c1ccccc1Cl (configuration not stated)	2.91 µM [rising, single point]	
COc1ccc(C(=O)Nc2ccc3c(c2)OCCO3)cc1	16.4 µM [falling, partial curve]	
COc1cccc(C2/C(=C(/O)c3ccc4c(c3)OCO4)C(=O)C(=O)N2CCN2CCOCC2)c1 (configuration not stated)	20 µM [falling, single point]	
COc1ccc(CN2CN(C3CCCC3)CSC2=S)cc1		35.5 µM [falling, single point]
Cc1cccnc1NC(=S)NC(=O)/C=C/c1ccco1	3.26 µM [falling, partial curve]	
CCOc1ccc(NC(=O)c2cccc3c2C(=O)N(CC2CCCO2)C3)cc1 (configuration not stated)	2 µM [rising, full curve, poor fit]	
CCOC(=O)/C(C#N)=C/Nc1ccsc1C(C)=O	8.91 µM [rising, partial curve, poor fit]	
Cc1nc2ccccn2c1C(=O)NN	2.31 µM [rising, full curve, poor fit]	
CC(=O)N/C(=C\c1ccccc1)C(=O)OC(C)C(=O)c1ccccc1 (configuration not stated)	20.6 µM [rising, partial curve]	
N/C(=N\N=C\c1cccc(O)c1)c1nonc1N	10 µM [falling, partial curve]	
